# Data reported in publication PMC7819943, “Rice protein-binding microarrays: a tool to detect cis-acting elements near promoter regions in rice”.
# The other results are listed elsewhere or left out.
# Target: T1, OsSMF1 (Oryza sativa, UniProt Q6ZLB0 1-436)
# T1 sequence: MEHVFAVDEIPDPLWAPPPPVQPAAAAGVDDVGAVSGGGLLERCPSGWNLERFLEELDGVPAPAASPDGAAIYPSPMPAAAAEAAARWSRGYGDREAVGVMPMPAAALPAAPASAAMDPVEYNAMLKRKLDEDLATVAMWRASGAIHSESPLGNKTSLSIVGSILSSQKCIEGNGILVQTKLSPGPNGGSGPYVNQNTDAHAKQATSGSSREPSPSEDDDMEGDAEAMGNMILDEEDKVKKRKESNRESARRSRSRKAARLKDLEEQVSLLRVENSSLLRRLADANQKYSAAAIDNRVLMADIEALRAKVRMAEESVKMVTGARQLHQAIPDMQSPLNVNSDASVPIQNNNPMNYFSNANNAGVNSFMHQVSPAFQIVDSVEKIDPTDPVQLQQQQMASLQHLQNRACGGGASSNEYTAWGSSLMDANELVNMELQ
# Experiment: protein-binding microarray (RPBM); PBS, 2% BSA, 51.3 ng/ul salmon testes DNA, 50 uM zinc acetate, 200 nM TF, 25 C, 1 h; high values mean tight binding
# Settings: protein: recombinant; tags: N-terminal polyhistidine and DsRed monomer fusion (pET32a); chain copies: 2; label: CyDye5-dUTP incorporated in the synthesized complementary strand; 3' TTTTT single-stranded linker to array surface; dsDNA, one strand shown
# Outline: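 An Axon 4000B scanner gave the binding signal as per-feature fluorescence intensity in arbitrary units. This followed washing of a custom Agilent array that had been incubated for 1 h at 25 °C with 200 nM protein in PBS, 2% BSA, salmon testes DNA and 50 µM zinc acetate. The proteins were transcription factors fused at the N-terminus to polyhistidine and DsRed, expressed in E. coli BL21-CodonPlus and purified on Ni–NTA.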
row,Sequence,binding signal
1,AATAATCAATAATCGTAAATGCGATAAATAAATTTCATAACGGAGTCACCTAGTGCAG,21400 fluorescence intensity (a.u.)
2,TGTCGTCAACATTAGCTAGAAATGGAATAAAGTTATAGTGCGGAGTCACCTAGTGCAG,3910 fluorescence intensity (a.u.)
3,AACCAGCACGCGATGGGGAGGGGCGAGCAGGAGGCGGCGGCGGAGTCACCTAGTGCAG,3320 fluorescence intensity (a.u.)
4,TTTGCGATGCTGACTGGTCTGAGAGCCTTGATCCGATGGTCGGAGTCACCTAGTGCAG,44800 fluorescence intensity (a.u.)
5,TACCATCTTTGAACAAATGAAGGACCGCAATGTTGTGTCACGGAGTCACCTAGTGCAG,3650 fluorescence intensity (a.u.)
6,TTCCTAACACCAGTCCACCTCTGCTTGGTCGTCACCAATTCGGAGTCACCTAGTGCAG,3410 fluorescence intensity (a.u.)
7,TGGCGCGACTGCTCGGGTCACCATAAATACGGGTAGGTGGCGGAGTCACCTAGTGCAG,3940 fluorescence intensity (a.u.)
8,AGAGCAGACACACAACCCGTGTCAGCATAGTCGCACACAACGGAGTCACCTAGTGCAG,32600 fluorescence intensity (a.u.)
9,TTCCATATCACTCCAGGTGAGTGACTCATATCAAATAACACGGAGTCACCTAGTGCAG,6730 fluorescence intensity (a.u.)
10,CTGTTCGCGGCGTCGCTGGCGTACCTGATGCGGCGGTGGCCGGAGTCACCTAGTGCAG,4080 fluorescence intensity (a.u.)
11,CTCCTAACCACGTCGCATACTTAAACTTAACCACTCGTGACGGAGTCACCTAGTGCAG,3320 fluorescence intensity (a.u.)
12,ATTCAGGTTTGGATAGAGTGGAACTTAACATGATGCAGACCGGAGTCACCTAGTGCAG,3300 fluorescence intensity (a.u.)
13,AACGCACAAACTTTCTCCAGGTCAGTACGTAAGCCACTTGCGGAGTCACCTAGTGCAG,3150 fluorescence intensity (a.u.)
14,TAATGGAGTGGCAACTATCTTGAAGTGGTAATTAAACTATCGGAGTCACCTAGTGCAG,3160 fluorescence intensity (a.u.)
15,TTATAGGAAGTAGTTTGCAACGTGGCGTTGCATATAGAGGCGGAGTCACCTAGTGCAG,5930 fluorescence intensity (a.u.)
16,GACCGGGTTTCCCCGTGGCGCCACCACCACCCATGGGCCCCGGAGTCACCTAGTGCAG,3680 fluorescence intensity (a.u.)
17,ACATATTTCAATGTGTATCTTCACTGTGTTTCATAATTTTCGGAGTCACCTAGTGCAG,23400 fluorescence intensity (a.u.)
18,TTCGCCGGCGGCCCGTCAGGCCGAAAGCGCCACGTGGGCGCGGAGTCACCTAGTGCAG,15900 fluorescence intensity (a.u.)
19,CGCGTTACAGGTTTCCAGCACAACCGGTCGGCGTCGTCAGCGGAGTCACCTAGTGCAG,4420 fluorescence intensity (a.u.)
20,TGGTAGCGATCCAATCTGCCTCCGGGCCCTGTCACACTAACGGAGTCACCTAGTGCAG,3720 fluorescence intensity (a.u.)
21,GTGGTGCGGCCGTGTACACGTCCCCGTGGAGGCCGGCGCCCGGAGTCACCTAGTGCAG,4010 fluorescence intensity (a.u.)

# Part of the list above, as tab-separated lines:
row	Sequence	binding signal
10	CTGTTCGCGGCGTCGCTGGCGTACCTGATGCGGCGGTGGCCGGAGTCACCTAGTGCAG	4080 fluorescence intensity (a.u.)
11	CTCCTAACCACGTCGCATACTTAAACTTAACCACTCGTGACGGAGTCACCTAGTGCAG	3320 fluorescence intensity (a.u.)

# Carrying on.

row,Sequence,binding signal
1,GGTAACCAGGCGTGGCGTACGTGGACCACTCCTTCTCCATCGGAGTCACCTAGTGCAG,7560 fluorescence intensity (a.u.)
2,ACTTAGATGATATCATCCTGTCACTGTCACTAGTCCCACTCGGAGTCACCTAGTGCAG,4250 fluorescence intensity (a.u.)
3,GCGTGTGTATATATTGGTGTGGAGGAGGAGGAGAAAGGGGCGGAGTCACCTAGTGCAG,4690 fluorescence intensity (a.u.)
4,GAAAAGATTAAACGTTAGTTGTTGGCACGTACTACCGTGGCGGAGTCACCTAGTGCAG,3340 fluorescence intensity (a.u.)
5,CAAGTGGGGACAGCGCCACGTGCGCGCTCGCTCTTCTCCACGGAGTCACCTAGTGCAG,11500 fluorescence intensity (a.u.)
6,TCGCTTCTTCCGACGCCACTTCACCTCTCCTTCCTCCCTCCGGAGTCACCTAGTGCAG,3180 fluorescence intensity (a.u.)
7,ATGCGCGATGTGATTTTGCGTGAGCGTGAGGACGTGGGCGCGGAGTCACCTAGTGCAG,3500 fluorescence intensity (a.u.)
8,GTCAGTGTCATGTGATACGCGCATTTTCTCCTCTACCCGTCGGAGTCACCTAGTGCAG,3840 fluorescence intensity (a.u.)
9,TTCTGATCTTACTGGGAGACCATCATCAACGTTGTCCAAGCGGAGTCACCTAGTGCAG,3860 fluorescence intensity (a.u.)
10,CGCGAAGGACGGGAGCGCGGAGGGGAGCAATGGGTCGGTGCGGAGTCACCTAGTGCAG,31100 fluorescence intensity (a.u.)
11,GCCCGTTCGCCGTCTCCAGGATGTCCACGTCGAACCCCACCGGAGTCACCTAGTGCAG,9590 fluorescence intensity (a.u.)
12,CCCTCTGTATGGACGGCAAGGGCCTAATCGCAATTTTGGCCGGAGTCACCTAGTGCAG,3900 fluorescence intensity (a.u.)
13,CCATGTCGACGTCCGCGCCGTCCATGTCCCCGTCCTCCGGCGGAGTCACCTAGTGCAG,3560 fluorescence intensity (a.u.)
14,CCAACGCCTGATTCGCTTCTCCATCTGCTTGCATTCAACCCGGAGTCACCTAGTGCAG,23400 fluorescence intensity (a.u.)
15,TCAAGTCATGAATTCTCCTATTTCAAGTCACTTCAGAAGTCGGAGTCACCTAGTGCAG,3330 fluorescence intensity (a.u.)
16,ATATAATACGTACATGGAGCCACGTGGCAACCCGGAGCGACGGAGTCACCTAGTGCAG,24700 fluorescence intensity (a.u.)
17,ACCGACGCCAACTCAAACCCCTTCGAAAACCTCCTCCTCCCGGAGTCACCTAGTGCAG,3500 fluorescence intensity (a.u.)
18,TAAGGGACACCGAGAAAACATGAAACTGCCCGAGGACACTCGGAGTCACCTAGTGCAG,28800 fluorescence intensity (a.u.)
19,AATTGCACAGTTTAGCTATAAATCGCGAGACGAATCTTTTCGGAGTCACCTAGTGCAG,3590 fluorescence intensity (a.u.)
20,AAACAACACTATCAATAGACCTGATCATGCAACCATGGTTCGGAGTCACCTAGTGCAG,3420 fluorescence intensity (a.u.)
21,GTGTTCACTCGGTAGACATGACACCGTGCATTGTCGCCACCGGAGTCACCTAGTGCAG,5900 fluorescence intensity (a.u.)
